No constants are given. Whether binding was seen depends on the method and setting. Some entries that bind do so weakly or less than the wild type.
Key:
[1] = target: recombinant mouse PD-1/Fc (R&D Systems) (mouse) (UniProt Q02242); assay: ELISA, plate coated with recombinant mouse PD-1/Fc, OD450 against ug/ml B7-DC-Ig
[2] = target: recombinant mouse PD-1/Fc (R&D Systems) (mouse) (UniProt Q02242); assay: ELISA, plate coated with recombinant mouse PD-1/Fc, detection with biotin anti-mouse B7-DC clone 112

By UniProt entry, the sequences of proteins in these tests, tags left out. Residues count along the entry.
UniProt Q02242, residues 25-167: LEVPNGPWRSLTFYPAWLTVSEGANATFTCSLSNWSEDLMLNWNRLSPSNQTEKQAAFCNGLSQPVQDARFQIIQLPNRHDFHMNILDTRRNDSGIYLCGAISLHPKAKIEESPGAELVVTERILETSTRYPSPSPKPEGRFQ

- binding [1]: binds
- binding [2]: binds
B1: murine B7-DC-Ig (wild type) (Fc fusion)
chain: LFTVTAPKEVYTVDVGSSVSLECDFDRRECTELEGIRASLQKVENDTSLQSERATLLEEQLPLGKALFHIPSVQVRDSGQYRCLVICGAAWDYKYLTVKVKASYMRIDTRILEVPGTGEVQLTCQARGYPLAEVSWQNVSVPANTSHIRTPEGLYQVTSVLRLKPQPSRNFSCMFWNAHMKELTSAIIDPLSRMEPKVPRTWEPRGPTIKPCPPCKCPAPNLLGGPSVFIFPPKIKDVLMISLSPIVTCVVVDVSEDDPDVQISWFVNNVEVHTAQTQTHREDYNSTLRVVSALPIQHQDWMSGKEFKCKVNNKDLPAPIERTISKPKGSVRAPQVYVLPPPEEEMTKKQVTLTCMVTDFMPEDIYVEWTNNGKTELNYKNTEPVLDSDGSYFMYSKLRVEKKNWVERNSYSCSVVHEGLHNHHTTKSFSRTPGK
modifications: Homodimer through the IgG2a hinge; one chain given.

From patent US20110195068A1, “PD-1 ANTAGONISTS AND METHODS OF USE THEREOF” (priority 2008, published 2011)
